Reference: patent US12584173B2, “Methods for disease treatment and drug discovery” (The Scripps Research Institute, priority 2018, dated 2026)

System: NPC1
Assay: molecular variogram / VSP analysis of 48 NPC1 variants with and without SAHA
Design: species or system human
Details: with SAHA
Description: To generate phenotype landscapes that allow us to discover sequence-to-function-to-structure relationships for the entire polypeptide chain at atomic resolution, the training set comprising each of the 48 variant's normalized linear position in the NPC1 polypeptide sequence (referred to as VarSeqP) was plotted as an input value on the x-axis genotype coordinate. To assess the relationship of each genotype to function, we assigned as the y-axis input the known value of each variant's ChoI measurement. Distance values defined by VarSeqP-ChoI spatial relationship provide the first layer of spatial information for the analysis and show how ChoI homeostasis is influenced by a variant's sequence position. These 2D plots illustrate the striking change that occurs in such simple spatial relationships in response to SAHA where we detect a compaction of spatial relationships reflecting a substantial decrease in the ability of most variants to disrupt cholesterol homeostasis.
To address the spatial relationship between VarSeqP-ChoI measurements and trafficking given the importance of cellular location in proper of management of cholesterol by NPC1, an input z-value was assigned the known TrIdx value for each variant. The spatial relationship of the z-axis to each VarSeqP-ChoI value provides the second layer of spatial information that can now link variant sequence position and its impact on ChoI to the TrIdx, that is, its cellular location. The spatial relationships based on both distance and spatial variance for all possible 1128 variant pairwise combinations were modeled by a molecular variogram. […] Spatial relationships within the range are more dependent on one another (i.e., they covary with each other), while spatial relationships extending beyond the range are not correlated and of lower value in VSP in interpreting genotype to phenotype relationships. […] Moreover, the spatial variance (the plateau) of the TrIdx is reduced by 40%.
To assign a value to cholesterol homeostasis based on the TrIdx response to NPC1 variants, we flipped the biological features used for y-axis and z-axis. […] By reducing the inter-dependency of sequence modules that leads to disease phenotype in untreated cells, SAHA resolves the problem imposed by variant disrupted folding intermediates.

**Q.** Which results are given for O=C(CCCCCCC(=O)Nc1ccccc1)NO [SAHA, Vorinostat]?
**A.** reduction of the spatial variance (the plateau) of the TrIdx: 40%; reduction of the spatial variance of the ChoI value: ~70%; range of the ChoI molecular variogram (0.08 without): 0.02; range of the TrIdx molecular variogram (~250 amino acids without): about 40 amino acids
